Measured values: the supplement of paper PMC12024529
Counter-ions that a name gives are not always drawn. This is one part of the list. Baselines shift from plate to plate; read single values as rough.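 HEK293 lines stably express B-domain-deleted factor VIII fused to Gaussia luciferase, wild type or a misfolding-prone missense mutant. Scores equal triplicate-well mean luminescence minus DMSO mean, divided by DMSO standard deviation; scores of 2 or higher are hits. Low scores may indicate reduced secretion or worse cell viability.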

Test system: HEK293 p.N1941S BDD-FVIII-Gluc
Assay: secreted FVIII-Gluc luciferase Z-score vs DMSO control; higher = more FVIII-Gluc secretion
Conditions: 5 µM; 24 h

Secreted FVIII-Gluc luciferase Z-score, inactive:
Cc1ncc([N+](=O)[O-])n1CC(C)O (stereo unspecified) [Secnidazole (Flagentyl)] -0.00233
CCOC(=O)[C@H](CCc1ccccc1)N[C@H]1CCc2ccccc2N(CC(=O)O)C1=O [Benazepril hydrochloride] 0.175
CC(C)[N+]1(C)[C@@H]2CC[C@H]1C[C@@H](OC(=O)C(CO)c1ccccc1)C2 (stereo partly specified) [Ipratropium bromide] -0.179
CN(C)C/C=C/C(=O)Nc1cc2c(Nc3ccc(F)c(Cl)c3)ncnc2cc1O[C@H]1CCOC1 [Afatinib (BIBW2992)] -13.4
CN(Cc1cc(Br)cc(Br)c1N)C1CCCCC1 [Bromhexine HCl] -0.162
C=CC(=O)N1CCC[C@@H](n2nc(-c3ccc(Oc4ccccc4)cc3)c3c(N)ncnc32)C1 -1.06
CC1(C)[C@@H](OC(=O)CCC(=O)O)CC[C@]2(C)[C@H]3C(=O)C=C4[C@@H]5C[C@@](C)(C(=O)O)CC[C@]5(C)CC[C@@]4(C)[C@]3(C)CC[C@@H]12 [Carbenoxolone Sodium] 1.07
Cc1nc(Nc2ncc(C(=O)Nc3c(C)cccc3Cl)s2)cc(N2CCN(CCO)CC2)n1 -13.3
c1ccc(CN(CC2=NCCN2)c2ccccc2)cc1 [Antazoline HCl] 0.457
C=CCc1cc(OC)c(O)c(C(=O)NCCO)c1 [Alibendol] 0.17
C#CCC(Cc1cnc2nc(N)nc(N)c2n1)c1ccc(C(=O)N[C@@H](CCC(=O)O)C(=O)O)cc1 (stereo partly specified) [Pralatrexate (Folotyn)] -2.92

As a short view, part of the list above.
Secreted FVIII-Gluc luciferase Z-score, inactive:
CC(C)[N+]1(C)[C@@H]2CC[C@H]1C[C@@H](OC(=O)C(CO)c1ccccc1)C2 (stereo partly specified) [Ipratropium bromide] -0.179
CN(C)C/C=C/C(=O)Nc1cc2c(Nc3ccc(F)c(Cl)c3)ncnc2cc1O[C@H]1CCOC1 [Afatinib (BIBW2992)] -13.4
